# Reference: PubChem BioAssay AID485298 (National Center for Advancing Translational Sciences (NCATS), 2010)
# In all, about 320,000 compounds went through this assay and about 740 (0.23%) were called active. Inconclusive means that the source gave no clear call. Such entries were picked first, then a sample of the others. Calls follow the shape of the dose curve; as a rule, active = well fitted activation curve with a large enough effect; inconclusive = small, poorly fitted or top-dose-only effect; inactive = no such curve, though single readings can be large or run the other way. Where the call is inconclusive, the potency comes from a doubtful curve fit.
# Assay: qHTS Assay for Small Molecule Inhibitors of Mitochondrial Division or Activators of Mitochondrial Fusion; also: nearly all actives have a fitted effect of over 45% in size; as to growth rescue (activation): % of control where 0% means no effect
# Conditions: S. cerevisiae fusion-defective mutant growth rescue, CellTiterGlo 48 h; growth rescue (activation): at 46.1 µM (top of the series) unless noted
# Method in brief: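 Temperature-sensitive fusion-defective S. cerevisiae (e.g. fzo1-1, mgm1-5) were grown with compound in YPEG medium (3% ethanol, 3% glycerol) for 48 hours at 37C. Growth rescue was measured as viability by CellTiterGlo luminescence after 10 minutes at ambient.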
# Potency is read from the fitted curve at half-maximal effect.
Compound,Potency,growth rescue (activation)
CCC(=O)Nc1cccc(C(=O)/C=C/c2cccs2)c1,"inconclusive: 5.62 µM [activator, partial curve]",
O=C(O)c1ccccc1-n1c2ccccc2c2ccccc21,,inactive: 17.8%
COc1ccc(C(=O)NC(=S)NC(C)(C)C)cc1Br,,inactive: 2.33%
COc1ccc(OC)c(S(=O)(=O)NCC(c2ccco2)N2CCc3ccccc3C2)c1 (stereo unspecified),"inconclusive: 14.1 µM [activator, single point]",
Nc1nnc(SC2CCCC2)s1,,inactive: -11%
Cc1cccc(Cc2cnc(NC(=O)c3ccc(C)o3)s2)c1,"inconclusive: 35.5 µM [activator, single point]",
COc1cccc(C(=O)Nc2nc(-c3ccc4c(c3)OCO4)cs2)c1,"inconclusive: 35.5 µM [activator, single point]",
Cc1ccc(O)c(C(=O)CC(=O)c2ccc(Cl)cc2)c1,"inconclusive: 3.16 µM [activator, partial curve]",
CCCn1c(=S)[nH]c2cc(Cl)ccc21,,inactive: -5.51%
CC1=C(C(=O)OC2CCCCC2)C(c2ccco2)C2=C(CC(C)(C)CC2=O)N1 (stereo unspecified),,inactive: -0.172%
O=C(CSc1ncn(-c2ccccc2)n1)Nc1nc2ccccc2s1,"inconclusive: 35.5 µM [activator, single point]",
N[C@H](C(=O)O)[C@H](Cc1ccccc1)C(=O)O,,inactive: 1.29%
CSc1[nH]c(=O)c(C(=O)O)cc1C#N,,inactive: -3.06%
CC(C)(C)c1ccc(S(=O)(=O)N2CCN(C3CCCC3)CC2)cc1,"inconclusive: 5.62 µM [activator, single point]",
COc1ccc(CN(Cc2cccn2C)C(=O)c2cc3cc(OC)ccc3[nH]2)cc1,"inconclusive: 12.6 µM [activator, partial curve]",
CC1CCC(C(C)C)C(OCC(O)CN2CCCC(C)C2)C1 (stereo unspecified),"inconclusive: 14.1 µM [activator, partial curve]",
O=C(/C=C/c1cccc([N+](=O)[O-])c1)NCCSCc1c(Cl)cccc1Cl,"inconclusive: 35.5 µM [activator, single point]",
COc1ccc(CNC(=O)CCSCc2cccc(F)c2)cc1,,inactive: 2.69%
CCN(CC)CCNC(=O)c1cn(CCOC)c(=O)c2c1c1ccccc1n2C,,inactive: -4.67%
Nc1nonc1-n1nnc(C(=O)N/N=C/c2ccc(Br)cc2)c1CSC1=NCCS1,"inconclusive: 14.1 µM [activator, single point]",
Cn1c(=O)c2c(nc(NCc3ccco3)n2CCc2ccccc2)n(C)c1=O,,inactive: 1.45%
Cc1nc2nc(Cc3ccccc3)nn2c(C)c1Cl,,inactive: -4.63%
C[C@H](NC(=O)/C(C#N)=C/c1ccc(O)c(O)c1)c1ccccc1,"inconclusive: 16.4 µM [activator, partial curve]",
Cc1cccc(N2CN(Cc3ccco3)CNC2=S)c1C,,inactive: -4.69%
O=C(O)CCn1c(-c2ccccc2)cc2c1CCCC2=O,"inconclusive: 0.631 µM [activator, full curve]",
CCOCCCNC(=O)CSCc1nc(-c2ccc(SC)cc2)oc1C,"inconclusive: 14.1 µM [activator, single point]",

Compound,Potency,growth rescue (activation)
N#CCSc1nc2c(c(C3CC=CCC3)c1C#N)CCC2 (stereo unspecified),"inconclusive: 11.2 µM [activator, single point]",
O=C(O)c1ccc(NCc2cccc(Br)c2)cc1,active: 10 µM,
Cc1ccn2c(=O)nc(SCC(=O)Nc3cccc4ccccc34)nc2c1,,inactive: 16.1%
Cc1cc(C)cc(NC(=S)N(CCN(C)C)C(C)c2cccnc2)c1 (stereo unspecified),"inconclusive: 35.5 µM [activator, single point]",
CC(=O)c1cccc(NC(=O)COc2ccccc2)c1,,inactive: 1.88%
Cc1nn(Cc2ccccc2)c2sc(C(=O)N3CCN(Cc4ccc5c(c4)OCO5)CC3)cc12,"inconclusive: 11.2 µM [activator, partial curve]",
O=C(NC(=S)Nc1nc(-c2ccc(Br)cc2)cs1)c1cccnc1,,inactive: -4.11%
CSc1nnc2c3cc(F)ccc3n(C)c2n1,,inactive: -3.05%
S=C(Nc1ccc(Oc2ccccc2)cc1)NC1CCCCCC1,"inconclusive: 12.6 µM [activator, partial curve]",
CC(=O)NC1C(=O)N=C(SCC(=O)Nc2cccc(Cl)c2)NC1=O (stereo unspecified),,inactive: 2.33%
CSc1nc2nc3c(cn2n1)C(=O)CC(c1ccccc1)C3 (stereo unspecified),,inactive: -4.12%
COc1ccc(NS(=O)(=O)c2ccc(F)c(Cl)c2)cn1,,inactive: 4.31%
Cc1ccccc1NC(=O)CSc1nc(-c2cccs2)nc2cc(=O)[nH]n12,,inactive: 4.1%
COCc1cc(=O)n2[nH]c(C)cc2n1,,inactive: -1.11%
O=C(Cn1cc(C(=O)C2CC2)c2ccccc21)NCc1ccccc1,,inactive: 0.068%
COc1ccc(/C=C2\SC(=S)N(NS(=O)(=O)c3ccccc3)C2=O)c(OC)c1,"inconclusive: 12.6 µM [activator, partial curve]",
O=C(Nc1cc(=O)[nH]c(=O)[nH]1)c1cccc(C(F)(F)F)c1,,inactive: 5.38%
Cc1cc(N2CCN(c3cccc(C)c3C)CC2)nc(-c2ccccc2)n1,"inconclusive: 11.2 µM [activator, partial curve]",
CSc1nc(N2CCOCC2)nc2ccc(C)cc12,"inconclusive: 3.16 µM [activator, full curve, poor fit]",
Cc1cc(N/N=C/c2ccccc2Br)nc2ccccc12,"inconclusive: 20 µM [activator, single point]",
CCC(C)(C)n1nnnc1CN1CCN(C(c2ccccc2)c2ccccc2)CC1,"inconclusive: 35.5 µM [activator, single point]",
COc1ccc2nc(NC(=O)CN(c3ccc(C)cc3)S(=O)(=O)c3c(C)nn(C)c3C)sc2c1,"inconclusive: 12.6 µM [activator, partial curve]",
Cc1ccccc1N1C(=O)C(Cl)=C(N2CCCCCC2)C1=O,"inconclusive: 17.8 µM [activator, partial curve]",
COc1ccccc1N1CCN(CCN2C(=O)CC3(CCCC3)CC2=O)CC1,"inconclusive: 9.2 µM [activator, partial curve]",
COc1cc(NC(=O)c2ccccc2-c2ccccc2)cc(OC)c1,"inconclusive: 17.8 µM [activator, single point]",

# Exported with bars between the fields: entries from further up.
Compound | Potency | growth rescue (activation)
S=C(Nc1ccc(Oc2ccccc2)cc1)NC1CCCCCC1 | inconclusive: 12.6 µM [activator, partial curve] | 
CC(=O)NC1C(=O)N=C(SCC(=O)Nc2cccc(Cl)c2)NC1=O (stereo unspecified) |  | inactive: 2.33%
